Taken from: PubChem BioAssay AID1224830 (NIAID, 2016)

Aim: 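Genes whose knock-down alters the TNF-alpha reporter response to LPS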 (primary screen)
Cell system: human THP-1 monocytic leukaemia cells, TNF dual-luciferase reporter clone, PMA-differentiated to macrophage-like cells
Reagents: siRNA pool against human genes, 50 nM
Time to read-out: LPS for 4 h, given about 3 days after siRNA transfection
Challenge: bacterial LPS (TLR4 ligand), 10 ng/ml
Measurement: 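TNF firefly reporter luminescence divided by renilla, normalised to the plate median, then turned into a robust z-score for each replicate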
Direction: TNF reporter robust z-score: higher = stronger TNF reporter response to LPS
Call rule: 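a well is active when its z-score exceeds 2.8 or falls below -1.5; control wells carry no call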
Shown is an unselected part of about 18,000 reagents tested. Over the whole deposit, about 2,900 (16%) are marked active. 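Calls are made per well; low scores hint the gene aids the LPS response, high scores that it dampens it.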 Repeated entries: four replicate wells of each siRNA pool.

gene symbol | TNF reporter robust z-score | outcome
TTC6 | 0.79 | inactive
TTC6 | 0.15 | inactive
TTC6 | 1.92 | inactive
TTC6 | 2.63 | inactive
MDK | -0.21 | inactive
MDK | -0.6 | inactive
MDK | -0.58 | inactive
MDK | 0.21 | inactive
ADIPOR1 | 0.33 | inactive
ADIPOR1 | 1.43 | inactive
ADIPOR1 | -0.89 | inactive
ADIPOR1 | 3.5 | active
WARS1 | 0.81 | inactive
WARS1 | 2.38 | inactive
WARS1 | 0.17 | inactive
WARS1 | 1.06 | inactive
SYNGR1 | -0.04 | inactive
SYNGR1 | -1.67 | active
SYNGR1 | -1.03 | inactive
SYNGR1 | -1.19 | inactive
MAP3K1 | -0.17 | inactive
MAP3K1 | 0.29 | inactive
MAP3K1 | -0.2 | inactive
MAP3K1 | 0.09 | inactive
MAP3K1 | 0.55 | inactive
MAP3K1 | 0.4 | inactive
MAP3K1 | 0.57 | inactive
MAP3K1 | 0.54 | inactive
AMZ1 | 0.15 | inactive
AMZ1 | 1.08 | inactive
AMZ1 | -0.69 | inactive
AMZ1 | -0.25 | inactive
UNC13B | 1.38 | inactive
UNC13B | -0.2 | inactive
UNC13B | 0.91 | inactive
UNC13B | 0.98 | inactive
ADGRF3 | 1.24 | inactive
ADGRF3 | 0.45 | inactive
ADGRF3 | 0.63 | inactive
ADGRF3 | 1.19 | inactive
TFAP2E | -0.55 | inactive
TFAP2E | -0.91 | inactive
TFAP2E | 0.19 | inactive
TFAP2E | -0.46 | inactive
ABCB9 | 0.66 | inactive
ABCB9 | -0.66 | inactive
ABCB9 | 1.49 | inactive
ABCB9 | 0.06 | inactive
DENND4C | -0.24 | inactive
DENND4C | 0.41 | inactive
DENND4C | 0.36 | inactive
DENND4C | 0.67 | inactive

The list goes on; the last 4 above are carried over.
gene symbol | TNF reporter robust z-score | outcome
DENND4C | -0.24 | inactive
DENND4C | 0.41 | inactive
DENND4C | 0.36 | inactive
DENND4C | 0.67 | inactive
SHISA4 | -1.17 | inactive
SHISA4 | -1.19 | inactive
SHISA4 | -0.86 | inactive
SHISA4 | -1.25 | inactive
PPIL1 | -0.26 | inactive
PPIL1 | -0.65 | inactive
PPIL1 | -0.47 | inactive
PPIL1 | 0.01 | inactive
DRC7 | -0.52 | inactive
DRC7 | 0.25 | inactive
DRC7 | 0.05 | inactive
DRC7 | 0.46 | inactive
PTH2 | 1.52 | inactive
PTH2 | 1.95 | inactive
PTH2 | 1.27 | inactive
PTH2 | 2.58 | inactive
LZTS3 | -1.39 | inactive
LZTS3 | -0.59 | inactive
LZTS3 | -0.77 | inactive
LZTS3 | -0.42 | inactive
ATP5MC3 | 1.18 | inactive
ATP5MC3 | 0.33 | inactive
ATP5MC3 | 1.11 | inactive
ATP5MC3 | 0.13 | inactive
OR6S1 | 0.8 | inactive
OR6S1 | 1.47 | inactive
OR6S1 | 1.56 | inactive
TAF1A | 2.19 | inactive
TAF1A | 3.01 | active
TAF1A | 1.67 | inactive
TAF1A | 2.09 | inactive
SCG2 | -0.08 | inactive
SCG2 | -1.54 | active
SCG2 | -0.1 | inactive
SCG2 | 0.1 | inactive
EMC2 | -0.09 | inactive
EMC2 | 0.65 | inactive
EMC2 | 0.24 | inactive
EIF2A | -0.1 | inactive
EIF2A | 0.51 | inactive
EIF2A | 0.66 | inactive
EIF2A | 1.11 | inactive
NEMP1 | 0.84 | inactive
NEMP1 | -0.28 | inactive
NEMP1 | -0.43 | inactive
NEMP1 | 0.87 | inactive
ALPI | -0.81 | inactive
ALPI | -1.26 | inactive
ALPI | -1.59 | active
ALPI | -0.91 | inactive
SRRM4 | -0.8 | inactive
SRRM4 | -0.95 | inactive
SRRM4 | -1.17 | inactive
SRRM4 | -0.69 | inactive
USP17L9P | -1.66 | active
USP17L9P | -1.11 | inactive
USP17L9P | -1.3 | inactive
USP17L9P | -1.58 | active
